Data as given in PubChem BioAssay AID2718 (Broad Institute, 2010).
The campaign covered roughly 320,000 compounds. About 480 (0.15%) were called active. This list was built around the results that the source calls inconclusive (neither active nor inactive); the mix of calls is not that of the screen. Rule as the data show it: active = inhibition above about 26% (passing the limit was not always enough); inconclusive = no clear call, values can overlap the other calls.

Protein sequences, listed by entry. Tags and fused reporters are not part of them. Lines headed by an entry give the natural chain unless they say otherwise; changes in a name come on top.
UniProt O15379: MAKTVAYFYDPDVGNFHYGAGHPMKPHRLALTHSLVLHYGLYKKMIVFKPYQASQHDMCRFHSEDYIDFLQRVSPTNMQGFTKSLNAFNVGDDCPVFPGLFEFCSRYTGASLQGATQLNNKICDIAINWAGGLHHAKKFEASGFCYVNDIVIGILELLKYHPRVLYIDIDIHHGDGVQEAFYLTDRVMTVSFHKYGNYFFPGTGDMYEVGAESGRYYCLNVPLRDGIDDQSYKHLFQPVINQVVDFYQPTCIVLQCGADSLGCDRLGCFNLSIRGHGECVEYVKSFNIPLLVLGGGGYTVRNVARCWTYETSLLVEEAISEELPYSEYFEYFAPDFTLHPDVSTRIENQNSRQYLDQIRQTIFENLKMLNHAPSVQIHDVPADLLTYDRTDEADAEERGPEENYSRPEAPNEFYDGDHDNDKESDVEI

target: Histone deacetylase 3 (Homo sapiens) (UniProt O15379); experiment: HDAC3 deacetylase inhibitors, primary screen, biochemical, fluorescence, cell-free homogeneous (AID 2718); conditions: recombinant HDAC3, fluorogenic peptide/trypsin coupled, at 8.3 µM, stronger effect = higher value

| Structure (SMILES) | inhibition |
| --- | --- |
| N#CCSc1nnc(COc2cccc3ccccc23)n1-c1cccc(Cl)c1 | inconclusive: 16.8% |
| O=C(CSC1=NS(=O)(=O)c2ccccc2N1)N1CCCCC1 | inconclusive: 13.6% |
| S=c1[nH]nc(-c2ccc(Cl)cc2)n1Cc1ccccc1 | inactive: -5.32% |
| CC(=O)Oc1ccc(-c2ccc(C(=O)OCC(=O)N(C)CC(=O)Nc3ccccc3Cl)cc2)cc1 | inactive: -2.39% |
| O=C(NCc1ccccc1)c1nc[nH]c1C(=O)NCc1ccccc1 | inconclusive: 8.76% |
| S=c1[nH]nc(-c2ccccn2)n1/N=C/c1ccco1 | inconclusive: 22.9% |
| O=C1CCC([N+](=O)[O-])C(c2ccc(Cl)c([N+](=O)[O-])c2)N1 (centres undefined) | inconclusive: 20.4% |
| O=C1c2ccccc2NC(c2ccc(-c3cccc(F)c3)o2)N1O (centres undefined) | inactive: -0.338% |
| CCOC(=O)c1cccc(C2=CC(=O)C[C@H](c3ccc(Cl)cc3)C2)c1 | inconclusive: 32.3% |
| COc1ccc(C(=O)n2nc(C)cc2Nc2ccccc2)cc1 | inconclusive: 23.7% |
| CC(=O)O[C@H]1CSC[C@H]1NC(=O)c1ccccc1 | inconclusive: 11.5% |
| Cc1ccc(NC(=O)COC(=O)Cn2nc(C)c([N+](=O)[O-])c2C)c([N+](=O)[O-])c1 | inconclusive: 27.1% |
| O=C(/C=C/Nc1nccs1)C(F)(F)Cl | active: 54% |
| COc1ccc(CC(=O)Nc2cccc(-c3ccc4nnc(C)n4n3)c2)cc1 | inconclusive: 13.6% |
| Cn1c(C(=O)N2CCCC(C(=O)NCc3cccs3)C2)cc2sccc21 (centres undefined) | inactive: 0.833% |
| COc1ccccc1C(CNC(=O)c1ccc(S(=O)(=O)NCc2ccco2)cc1)N(C)C (centres undefined) | inactive: -2.47% |
| Cn1c(=O)c(-[n+]2ccccc2)c([O-])c2ccccc21 | inconclusive: 18.6% |
| CCC(=O)Nc1cccc(-c2nnc(-c3cccc(NC(=O)CC)c3)o2)c1 | inactive: 2.09% |
| CN(CC(=O)Oc1ccc(-c2nnco2)cc1)S(=O)(=O)c1ccc(F)cc1 | inactive: 7.52% |
| CCOC(=O)CSc1n[nH]c(NC(=O)c2ccc(F)cc2)n1 | active: 50.5% |
| Cc1ccc(SCC(=O)N2N=CCC2c2ccccc2)cc1 (centres undefined) | inconclusive: 9.33% |
| Cc1cc(C)c(C)c(S(=O)(=O)Nc2cccc(-n3cnnn3)c2)c1C | inconclusive: 24.6% |
| COC(=O)c1cc2n(n1)CCN(Cc1cccc(OC)c1)C2=O | inactive: 3.96% |
| C=CC[C@@H](CC(=O)N(CCO)Cc1ccccc1)C(=O)N[C@H](COC(=O)[C@@H](CC=C)Cc1ccc(F)cc1)Cc1ccccc1 | inconclusive: 17.8% |

Copied from above, 2 compounds:

| Structure (SMILES) | inhibition |
| --- | --- |
| O=C(CSC1=NS(=O)(=O)c2ccccc2N1)N1CCCCC1 | inconclusive: 13.6% |
| S=c1[nH]nc(-c2ccc(Cl)cc2)n1Cc1ccccc1 | inactive: -5.32% |
